The target of the test is Sodium channel protein type 9 subunit alpha (Homo sapiens, UniProt Q15858). The test is described as follows: cell-based.

Chains of the proteins cited; added tags and fusions are not shown.
UniProt Q15858, whole entry: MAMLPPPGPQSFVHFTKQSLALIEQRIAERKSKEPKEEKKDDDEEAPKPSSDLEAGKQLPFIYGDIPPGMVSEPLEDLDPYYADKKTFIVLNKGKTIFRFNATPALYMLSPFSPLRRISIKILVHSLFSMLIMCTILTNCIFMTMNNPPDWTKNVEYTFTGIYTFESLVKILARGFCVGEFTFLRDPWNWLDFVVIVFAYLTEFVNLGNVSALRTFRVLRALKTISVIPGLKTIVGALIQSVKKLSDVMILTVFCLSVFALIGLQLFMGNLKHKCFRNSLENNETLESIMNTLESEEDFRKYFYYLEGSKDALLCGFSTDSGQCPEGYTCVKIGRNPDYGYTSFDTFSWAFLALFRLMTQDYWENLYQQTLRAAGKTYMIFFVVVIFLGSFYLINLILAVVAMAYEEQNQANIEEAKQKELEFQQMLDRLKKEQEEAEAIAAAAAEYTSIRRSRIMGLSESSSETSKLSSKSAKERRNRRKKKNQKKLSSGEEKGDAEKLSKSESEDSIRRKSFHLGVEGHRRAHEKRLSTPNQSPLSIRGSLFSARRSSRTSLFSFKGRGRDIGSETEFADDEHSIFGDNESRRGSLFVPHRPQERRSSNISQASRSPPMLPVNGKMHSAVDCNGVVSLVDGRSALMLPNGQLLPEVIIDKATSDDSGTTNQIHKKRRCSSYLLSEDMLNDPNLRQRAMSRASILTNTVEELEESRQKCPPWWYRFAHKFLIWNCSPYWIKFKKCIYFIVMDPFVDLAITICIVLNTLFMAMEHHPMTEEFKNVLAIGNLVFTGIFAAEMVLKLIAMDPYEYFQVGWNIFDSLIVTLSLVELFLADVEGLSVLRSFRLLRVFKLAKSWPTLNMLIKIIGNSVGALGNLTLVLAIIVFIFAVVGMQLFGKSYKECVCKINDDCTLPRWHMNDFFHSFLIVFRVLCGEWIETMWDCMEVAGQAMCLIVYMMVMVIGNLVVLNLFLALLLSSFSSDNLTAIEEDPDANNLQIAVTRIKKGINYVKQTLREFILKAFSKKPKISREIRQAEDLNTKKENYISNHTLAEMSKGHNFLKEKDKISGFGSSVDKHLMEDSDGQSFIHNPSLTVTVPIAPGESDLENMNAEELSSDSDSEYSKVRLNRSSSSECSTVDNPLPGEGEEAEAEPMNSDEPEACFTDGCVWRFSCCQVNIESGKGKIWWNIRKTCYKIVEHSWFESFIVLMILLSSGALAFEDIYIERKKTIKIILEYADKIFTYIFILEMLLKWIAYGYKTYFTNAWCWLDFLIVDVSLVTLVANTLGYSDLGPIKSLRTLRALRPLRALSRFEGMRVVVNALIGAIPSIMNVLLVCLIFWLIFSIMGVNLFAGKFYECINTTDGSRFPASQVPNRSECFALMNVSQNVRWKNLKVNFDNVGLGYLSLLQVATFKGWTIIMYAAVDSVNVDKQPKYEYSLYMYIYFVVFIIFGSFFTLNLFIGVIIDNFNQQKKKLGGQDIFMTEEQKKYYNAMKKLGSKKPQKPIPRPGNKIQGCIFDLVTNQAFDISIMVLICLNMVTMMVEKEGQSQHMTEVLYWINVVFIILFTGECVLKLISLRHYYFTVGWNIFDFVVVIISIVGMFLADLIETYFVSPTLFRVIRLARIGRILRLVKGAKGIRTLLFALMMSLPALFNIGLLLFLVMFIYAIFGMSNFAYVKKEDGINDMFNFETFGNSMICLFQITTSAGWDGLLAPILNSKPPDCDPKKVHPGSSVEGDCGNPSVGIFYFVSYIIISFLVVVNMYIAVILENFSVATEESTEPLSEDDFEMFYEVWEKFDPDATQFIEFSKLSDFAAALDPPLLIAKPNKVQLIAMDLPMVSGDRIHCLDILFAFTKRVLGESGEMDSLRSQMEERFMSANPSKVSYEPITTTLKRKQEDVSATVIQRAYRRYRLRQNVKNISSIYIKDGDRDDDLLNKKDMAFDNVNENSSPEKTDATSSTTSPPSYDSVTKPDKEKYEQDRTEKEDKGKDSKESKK

The text below walks through data of ChEMBL document CHEMBL2321810, “QSAR investigation of NaV1.7 active compounds using the SVM/Signature approach and the Bioclipse Modeling platform” (Bioorg Med Chem Lett, 2013).

As a reminder, the IC50 is the concentration needed to halve the response being measured. Low readings indicate greater potency, high ones weaker potency.

`O=S(=O)(Nc1ncns1)c1cc(F)c(Oc2ccc(Cl)cc2-c2ccnn2C2CNC2)cc1F` gave an IC50 of 1.3 nM.
